Experimental data from patent US20030027314A1.
No constants are given. Whether binding was seen depends on the method and setting.

Target: bZIP VBP protein (chicken vitellogenin gene-binding protein) (chicken)
Assay: CD thermal melt: the mixture gives the same curve as the sum of the two homodimer curves

B1: 3heptad-F (designed binder)
chain: ASMTGGQQMGRDPGGGLARENEELEKEAEELEQENAELEQEVLELESRNDRLRKEVEQLERELDTLRGIFRQLPESSLVKAMGNCA
binding: no binding
